Values from PubChem BioAssay AID1259290 (Sanger Institute, 2017).
This is one part, drawn at random, of 794 deposited reagents. 9 of all reagents (1.1%) were called active. 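Calls rest on knock-down alone, not drug synergy; synergy above 0.15 was grouped apart and does not affect calls.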 No viability above 1 is reported: the scale is capped. Not given: the amount of reagent, the time to read-out.

- Purpose: 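siRNA screen across the kinome seeking synthetic lethal partners for BYL719, cetuximab or trametinib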 (primary screen)
- System: human SNUC1 colorectal cancer cells
- Reagent: siRNA pool against human genes
- Conditions: anchor drugs BYL719 1 µM, cetuximab 5 µg/ml or trametinib 10 nM, or DMSO vehicle alone
- Read-out: 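Viability averaged over replicates and scaled to non-targeting siRNA, robust z-score with no drug, and synergy scores by drug for BYL719, cetuximab and trametinib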
- Reading the numbers: viability z-score, siRNA alone: higher = more viable cells; low values mean essential gene; viability vs control, siRNA alone: higher = more viable cells; synergy score with BYL719 and synergy score with Cetuximab and synergy score with Trametinib: higher = stronger synthetic lethal effect with drug
- Active means: 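a knock-down without drug scoring a robust z under -3 counts as essential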
- Calls: active = essential: knock-down alone cut viability (z below -3); inactive = no clear viability loss with knock-down alone

gene knocked down,PubChem SID,"viability z-score, siRNA alone","viability vs control, siRNA alone",synergy score with BYL719,synergy score with Cetuximab,synergy score with Trametinib,outcome
MYO3B,SID152152883,-0.261,0.892,-0.182,-0.0636,-0.117,inactive
MAK,SID56478884,-2.34,0.705,-0.256,-0.299,-0.0559,inactive
CDK5R2,SID56479219,0.936,1,-0.157,-0.0103,-0.00774,inactive
TRIO,SID56478974,0.224,0.936,-0.0656,-0.061,0.059,inactive
GALK1,SID56479189,-2.06,0.73,-0.292,-0.0846,-0.184,inactive
MKNK2,SID152150791,0.536,0.964,-0.0633,0.294,0.0125,inactive
PFKFB2,SID135621246,0.205,0.934,-0.11,-0.0789,0.111,inactive
RUNX1,SID135620759,-1.42,0.788,-0.19,0.00899,-0.0821,inactive
FCSK,SID152149608,0.936,1,-0.167,0.0619,0.0486,inactive
TLK1,SID56478782,-0.367,0.883,0.106,0.123,0.0785,inactive
ROR2,SID56478550,-2.32,0.707,-0.145,-0.0754,-0.0737,inactive
ATP23,SID152151481,0.936,1,-0.198,-0.0447,0.0504,inactive
EFNA4,SID134312013,0.936,1,-0.1,-0.0447,-0.00636,inactive
PHKA1,SID152155157,0.936,1,-0.198,-0.0447,0.0437,inactive
DGKH,SID134311961,-0.396,0.88,0.0294,0.0705,0.0773,inactive
NME6,SID56479120,0.936,1,-0.0251,0.0845,0.061,inactive
MASTL,SID56478754,0.0488,0.92,-0.262,-0.0105,0.0389,inactive
PDIK1L,SID152147170,-0.0404,0.912,-0.0942,0.0923,0.0362,inactive
PRKACA,SID135620859,0.25,0.938,-0.137,0.0503,-0.0303,inactive
IP6K2,SID56479106,0.275,0.94,-0.16,0.151,0.00418,inactive

2 entries from above, reformatted:
gene knocked down	PubChem SID	viability z-score, siRNA alone	viability vs control, siRNA alone	synergy score with BYL719	synergy score with Cetuximab	synergy score with Trametinib	outcome
ROR2	SID56478550	-2.32	0.707	-0.145	-0.0754	-0.0737	inactive
ATP23	SID152151481	0.936	1	-0.198	-0.0447	0.0504	inactive
